Source: the supplement of paper PMC6331611
Where “and” joins values, the source holds several entries; their conditions need not be identical. Identical values can stand only once. ± gives the standard deviation of the averaged measurements. The full ranking holds about 1,600 compounds; the median of “normalized growth (OD600, IQM-normalized) in LPM” is about 1, and the lowest 2% start at about 0.014. The list shows a part of the results.

Tested on: Salmonella enterica serovar Typhimurium SL1344
Assay: normalized growth (OD600, IQM-normalized) in LPM (fraction of plate interquartile mean); higher = more bacterial growth (less inhibition)
Conditions: LPM pH 5.8; 10 µM; 16 h

`OC[C@@H](O)[C@@H](O)CO` and `CS(=O)(=O)c1ccc([C@@H](O)[C@@H](CO)NC(=O)C(Cl)Cl)cc1` are within error of each other in normalized growth: 0.975 ± 0.05 for the first, 0.934 ± 0.078 for the second.

Going from `O=C1C(CC[S+]([O-])c2ccccc2)C(=O)N(c2ccccc2)N1c1ccccc1` (configuration not stated) to `O=C1c2ccccc2C(=O)C1c1ccccc1`, the normalized growth falls from 1.097 ± 0.0059 to 0.916 ± 0.019.

`NS(=O)(=O)c1cc2c(cc1Cl)N=C(CSCc1ccccc1)NS2(=O)=O` and `O=C(O)Cc1ccccc1Nc1c(Cl)cccc1Cl` are within error of each other in normalized growth: 0.981 ± 0.02 for the first, 0.95 ± 0.039 for the second.

`CC(=O)OC/C=C(C)/C=C/C=C(C)/C=C/C1=C(C)CCCC1(C)C` and `CC1=C(/C=C/C(C)=C/C=C/C(C)=C/C=C/C=C(C)/C=C/C=C(C)/C=C/C2=C(C)CCCC2(C)C)C(C)(C)CCC1` [beta-CAROTENE] are within error of each other in normalized growth: 0.905 ± 0.06 for the first, 0.996 ± 0.032 for the second.

Going from `CC(C)[C@@H]1CC[C@@H](C)C[C@H]1O` to `C[C@]12C=CC(=O)C=C1CC[C@@H]1[C@@H]2[C@@H](O)C[C@@]2(C)[C@H]1CC[C@]2(O)C(=O)CO`, the normalized growth rises from 0.973 ± 0.014 to 1.12 ± 0.07.

`C[C@@H]1CC(=O)NN=C1c1ccc(NN=C(C#N)C#N)cc1` and `CCCSc1ccc2[nH]c(NC(=O)OC)nc2c1` are within error of each other in normalized growth: 0.868 ± 0.12 for the first, 0.989 ± 0.017 for the second.

`C[C@@H](c1ncncc1F)[C@](O)(Cn1cncn1)c1ccc(F)cc1F` and `CCc1ccc(CCOc2ccc(CC3SC(=O)NC3=O)cc2)nc1` (configuration not stated) are within error of each other in normalized growth: 1.13 ± 0.051 for the first, 1.09 ± 0.067 for the second.

Going from `CC(C)Cc1ccc([C@H](C)C(=O)O)cc1` to `CC(C(=O)O)c1ccc(CC2CCCC2=O)cc1` (configuration not stated), the normalized growth rises from 0.923 ± 0.018 to 0.977 ± 0.023.

Going from `O=c1[nH]cc(F)c(=O)[nH]1` to `Nc1ccc(O)c(C(=O)O)c1`, the normalized growth rises from 0.0109 ± 0.0049 to 0.961 ± 0.075.

Compared with `N=c1ccn2c(n1)O[C@H]1[C@H](O)[C@@H](CO)O[C@H]12`, `Nc1nc(F)nc2c1ncn2[C@@H]1O[C@H](COP(=O)(O)O)[C@@H](O)[C@@H]1O` is lower in normalized growth: 1.2 ± 0.013 for the first, 1.08 ± 0.041 for the second.

Going from `CO[C@@]1(NC(=O)C2SC(=C(C(N)=O)C(=O)O)S2)C(=O)N2C(C(=O)O)=C(CSc3nnnn3C)CS[C@@H]21` (some centres not stated) to `CO[C@@]1(NC(=O)C(C(=O)O)c2ccc(O)cc2)C(=O)N2C(C(=O)O)=C(CSc3nnnn3C)CO[C@@H]21` (some centres not stated), the normalized growth rises from 0.00904 ± 0.00015 to 0.993 ± 0.045.

`CN(C)CCCN1c2ccccc2CCc2ccc(Cl)cc21` and `Clc1ccc2c(c1)C(N1CCNCC1)=Nc1ccccc1O2` are within error of each other in normalized growth: 0.998 ± 0.062 for the first, 0.9645 ± 0.0095 for the second.

`Cc1cc(C(C)(C)CC(C)(C)C)ccc1OCCOCC[N+](C)(C)Cc1ccccc1` and `CC(C)(Oc1ccc(CCNC(=O)c2ccc(Cl)cc2)cc1)C(=O)O` are within error of each other in normalized growth: 0.822 ± 0.098 for the first, 0.915 ± 0.045 for the second.

Going from `Cc1cc(NC(=O)C2=C(O)c3ccccc3S(=O)(=O)N2C)no1` to `Cc1c(Cl)cccc1Nc1ccccc1C(=O)O`, the normalized growth rises from 0.808 ± 0.063 to 1.05 ± 0.089.

`Clc1ccccc1CN1CCc2sccc2C1` and `COC(=O)[C@H](c1ccccc1Cl)N1CCc2sccc2C1` are within error of each other in normalized growth: 1.02 ± 0.037 for the first, 0.979 ± 0.024 for the second.

First: CCC(=O)O[C@H](CC(=O)O)C[N+](C)(C)C
Second: NC(=O)N[C@@H](CCC(=O)O)C(=O)O
The normalized growth of the first is higher: 1.05 ± 0.011 for the first, 0.982 ± 0.016 for the second.

Going from `COC(=O)C1=C(C)NC(C)=C(C(=O)OC)C1c1ccccc1[N+](=O)[O-]` to `NC(=O)c1ccccc1O`, the normalized growth rises from 0.787 ± 0.067 to 1 ± 0.012.

`O=C1CC[C@@H](C(=O)O)N1` and `C[C@]12CCC(=O)C=C1CC[C@@H]1[C@@H]2C(=O)C[C@@]2(C)[C@H]1CC[C@]2(O)C(=O)CO` are within error of each other in normalized growth: 0.932 ± 0.063 for the first, 1 ± 0.026 for the second.

`C#C[C@]1(O)CC[C@H]2[C@@H]3CCC4=CC(=O)CC[C@@H]4[C@H]3CC[C@@]21C` and `C#C[C@]1(OC(C)=O)CC[C@H]2[C@@H]3CCC4=C[C@@H](OC(C)=O)CC[C@@H]4[C@H]3CC[C@@]21C` are within error of each other in normalized growth: 0.98 ± 0.023 for the first, 0.991 ± 0.05 for the second.

`Nc1ccc(S(=O)(=O)Nc2ncccn2)cc1` and `Cc1ccc(N(CC2=NCCN2)c2cccc(O)c2)cc1` are within error of each other in normalized growth: 0.991 ± 0.018 for the first, 1.01 ± 0.042 for the second.

Compared with `CO[C@H]1/C=C/O[C@@]2(C)Oc3c(C)c(O)c4c(O)c(c(/C=N/N5CCN(C)CC5)c(O)c4c3C2=O)NC(=O)/C(C)=C\C=C\[C@H](C)[C@H](O)[C@@H](C)[C@@H](O)[C@@H](C)[C@H](OC(C)=O)[C@@H]1C`, `CN(C)[C@@H]1C(O)=C(C(N)=O)C(=O)[C@@]2(O)C(O)=C3C(=O)c4c(O)cccc4[C@@](C)(O)[C@H]3C[C@@H]12` is higher in normalized growth: 0.0102 ± 0.00021 for the first, 0.0127 ± 0.00026 for the second.

Going from `O=C(O)c1ccccc1-c1c2cc(I)c(=O)c(I)c-2oc2c(I)c(O)c(I)cc12` to `O=C(O)CCc1nc(-c2ccccc2)c(-c2ccccc2)o1`, the normalized growth falls from 1.18 ± 0.065 to 1.03 ± 0.06.

First: O=C1c2c(O)cc(CO)cc2C(OC2OC(CO)C(O)C(O)C2O)c2cccc(OC3OC(CO)C(O)C(O)C3O)c21 (configuration not stated) [CASANTHRANOL [cascaroside A shown]]
Second: C[C@H](N[C@@H](CCc1ccccc1)C(=O)O)C(=O)N1CCC[C@H]1C(=O)O
The normalized growth of the first is higher: 1.02 ± 0.031 for the first, 0.827 ± 0.047 for the second.

`OCCN1CCN(CCCN2c3ccccc3Sc3ccc(C(F)(F)F)cc32)CC1` and `COCCCC/C(=N\OCCN)c1ccc(C(F)(F)F)cc1` are within error of each other in normalized growth: 1.06 ± 0.12 for the first, 0.84 ± 0.11 for the second.

Compared with `c1ccc(CC2=NCCN2)cc1`, `Oc1c(Br)cc(Br)c2cccnc12` is lower in normalized growth: 1.13 ± 0.044 for the first, 0.0441 ± 0.043 for the second.

`CCOC(=O)N1CCC(=C2c3ccc(Cl)cc3CCc3cccnc32)CC1` gave a normalized growth of 0.985 ± 0.019.

In the case of `CC[C@H]1OC(=O)[C@H](C)[C@@H](O[C@H]2C[C@@](C)(OC)[C@@H](O)[C@H](C)O2)[C@H](C)[C@@H](O[C@@H]2O[C@H](C)C[C@H](N(C)C)[C@H]2O)[C@](C)(O)C[C@@H](C)C(=O)[C@H](C)[C@@H](O)[C@]1(C)O`, the normalized growth is reported as 0.94 and 1.2.
